No constants are given. Whether binding was seen depends on the method and setting. In cells and extracts the contact can be indirect. A yes stands for co-enrichment or nearness to the bait. Other partners may have been found. For some of these results: A no says only that the protein was not detected with the bait. For some of these results: Where a sequence is shown, tags or fusion partners need not be part of it.

Common to all, as to assay: affinity purification with mass spectrometry; Halo-tagged bait stably expressed in Flp-In-293 cells; lysate with HL-SAN nuclease 2 U/ml for 2 h at 4 °C; bait captured on Magne HaloTag Beads, eluted with AcTEV Protease; MudPIT; enrichment over cells without transgene by QSPEC (Z-statistic >= 3 and log2 fold change >= 2)
In experiment [1] the target is T1, SIN3A-HaloTag (human), Q96ST3.
T1 chain: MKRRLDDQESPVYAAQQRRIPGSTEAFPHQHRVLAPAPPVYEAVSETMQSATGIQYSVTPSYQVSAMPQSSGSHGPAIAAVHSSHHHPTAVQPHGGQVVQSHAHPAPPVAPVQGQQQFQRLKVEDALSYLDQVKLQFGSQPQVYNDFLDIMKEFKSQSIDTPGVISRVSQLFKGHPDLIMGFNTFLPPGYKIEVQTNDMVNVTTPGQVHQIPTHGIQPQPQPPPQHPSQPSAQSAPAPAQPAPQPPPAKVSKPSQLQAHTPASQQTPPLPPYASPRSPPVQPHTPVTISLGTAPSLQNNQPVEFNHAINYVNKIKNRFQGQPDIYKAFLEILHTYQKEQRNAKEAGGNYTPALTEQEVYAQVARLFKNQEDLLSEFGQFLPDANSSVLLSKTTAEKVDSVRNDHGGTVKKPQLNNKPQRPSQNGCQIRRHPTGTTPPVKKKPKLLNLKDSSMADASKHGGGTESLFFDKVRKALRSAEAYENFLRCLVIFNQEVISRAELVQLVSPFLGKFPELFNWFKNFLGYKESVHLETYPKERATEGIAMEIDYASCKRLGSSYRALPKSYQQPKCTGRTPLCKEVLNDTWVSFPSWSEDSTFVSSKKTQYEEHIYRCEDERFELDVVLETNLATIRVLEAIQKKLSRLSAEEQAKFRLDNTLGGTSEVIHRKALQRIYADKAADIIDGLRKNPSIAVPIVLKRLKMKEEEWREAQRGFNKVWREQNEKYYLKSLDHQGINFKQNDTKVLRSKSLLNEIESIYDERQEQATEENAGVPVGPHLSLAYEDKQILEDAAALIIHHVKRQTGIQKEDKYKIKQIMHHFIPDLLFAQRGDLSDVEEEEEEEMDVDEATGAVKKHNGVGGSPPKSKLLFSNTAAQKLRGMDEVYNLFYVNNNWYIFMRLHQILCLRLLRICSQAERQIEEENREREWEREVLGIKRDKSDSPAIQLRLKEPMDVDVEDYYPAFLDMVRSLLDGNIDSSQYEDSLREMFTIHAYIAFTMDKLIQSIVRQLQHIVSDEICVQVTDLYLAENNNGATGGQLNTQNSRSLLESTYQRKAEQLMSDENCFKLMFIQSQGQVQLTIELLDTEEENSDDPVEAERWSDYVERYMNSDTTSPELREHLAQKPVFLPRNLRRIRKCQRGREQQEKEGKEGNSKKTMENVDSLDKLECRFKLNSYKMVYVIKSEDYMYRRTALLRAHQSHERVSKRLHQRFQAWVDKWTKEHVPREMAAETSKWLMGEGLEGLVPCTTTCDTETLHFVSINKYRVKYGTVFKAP
Conditions: remark: other sources report otherwise.

Experiment [2] deals with Halo-tagged MORF4L1 (human), Q9UBU8. Conditions: remark: other sources report otherwise.
Experiment [3] addresses Halo-tagged PHF12 (human), Q96QT6. Conditions: remark: other sources report otherwise.
In experiment [4] the target is Halo-tagged PHF12 (human) (UniProt Q96QT6).
Another experiment has as its target T2, SIN3A-HaloTag (human) (UniProt Q96ST3).
T2 sequence: T1 chain

For experiment [5], the target named is T3, Halo-tagged GATAD1 (human) (UniProt Q8WUU5).
T3 sequence: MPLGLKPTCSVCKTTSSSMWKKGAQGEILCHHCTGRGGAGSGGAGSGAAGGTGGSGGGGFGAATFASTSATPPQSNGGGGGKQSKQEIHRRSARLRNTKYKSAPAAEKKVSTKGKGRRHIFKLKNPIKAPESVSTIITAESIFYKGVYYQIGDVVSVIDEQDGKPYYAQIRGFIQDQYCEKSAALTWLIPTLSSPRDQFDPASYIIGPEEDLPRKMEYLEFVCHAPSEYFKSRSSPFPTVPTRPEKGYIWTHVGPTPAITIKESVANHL

B1: SIN3A (native, untagged), Q96ST3 1-1273 (protein)
chain: T1 chain
B1: the binding result in experiment [1] was “binds”; in experiment [2], “no binding”; in experiment [3], “no binding”.

B2: PHF12, Q96QT6 1-1004 (protein)
chain: MWEKMETKTIVYDLDTSGGLMEQIQALLAPPKTDEAEKRSRKPEKEPRRSGRATNHDSCDSCKEGGDLLCCDHCPAAFHLQCCNPPLSEEMLPPGEWMCHRCTVRRKKREQKKELGHVNGLVDKSGKRTTSPSSDTDLLDRSASKTELKAIAHARILERRASRPGTPTSSASTETPTSEQNDVDEDIIDVDEEPVAAEPDYVQPQLRRPFELLIAAAMERNPTQFQLPNELTCTTALPGSSKRRRKEETTGKNVKKTQHELDHNGLVPLPVKVCFTCNRSCRVAPLIQCDYCPLLFHMDCLEPPLTAMPLGRWMCPNHIEHVVLNQKNMTLSNRCQVFDRFQDTVSQHVVKVDFLNRIHKKHPPNRRVLQSVKRRSLKVPDAIKSQYQFPPPLIAPAAIRDGELICNGIPEESQMHLLNSEHLATQAEQQEWLCSVVALQCSILKHLSAKQMPSHWDSEQTEKADIKPVIVTDSSVTTSLQTADKTPTPSHYPLSCPSGISTQNSLSCSPPHQSPALEDIGCSSCAEKSKKTPCGTANGPVNTEVKANGPHLYSSPTDSTDPRRLPGANTPLPGLSHRQGWPRPLTPPAAGGLQNHTVGIIVKTENATGPSSCPQRSLVPVPSLPPSIPSSCASIENTSTLQRKTVQSQIGPPLTDSRPLGSPPNATRVLTPPQAAGDGILATTANQRFSSPAPSSDGKVSPGTLSIGSALTVPSFPANSTAMVDLTNSLRAFMDVNGEIEINMLDEKLIKFLALQRIHQLFPSRVQPSPGSVGTHQLASGGHHIEVQRKEVQARAVFYPLLGLGGAVNMCYRTLYIGTGADMDVCLTNYGHCNYVSGKHACIFYDENTKHYELLNYSEHGTTVDNVLYSCDFSEKTPPTPPSSIVAKVQSVIRRRRHQKQDEEPSEEAAMMSSQAQGPQRRPCNCKASSSSLIGGSGAGWEGTALLHHGSYIKLGCLQFVFSITEFATKQPKGDASLLQDGVLAEKLSLKPHQGPVLRSNSVP
With B2, in experiment [1], the binding result is listed as “no binding”.

B3: EMSY (protein, UniProt Q7Z589 1-1322)
chain: MPVVWPTLLDLSRDECKRILRKLELEAYAGVISALRAQGDLTKEKKDLLGELSKVLSISTERHRAEVRRAVNDERLTTIAHNMSGPNSSSEWSIEGRRLVPLMPRLVPQTAFTVTANAVANAAIQHNASLPVPAETGSKEVVCYSYTSTTSTPTSTPVPSGSIATVKSPRPASPASNVVVLPSGSTVYVKSVSCSDEDEKPRKRRRTNSSSSSPVVLKEVPKAVVPVSKTITVPVSGSPKMSNIMQSIANSLPPHMSPVKITFTKPSTQTTNTTTQKVIIVTTSPSSTFVPNILSKSHNYAAVTKLVPTSVIASTTQKPPVVITASQSSLVSNSSSGSSSSTPSPIPNTVAVTAVVSSTPSVVMSTVAQGVSTSAIKMASTRLPSPKSLVSAPTQILAQFPKQHQQSPKQQLYQVQQQTQQQVAQPSPVSHQQQPQQSPLPPGIKPTIQIKQESGVKIITQQVQPSKILPKPVTATLPTSSNSPIMVVSSNGAIMTTKLVTTPTGTQATYTRPTVSPSIGRMAATPGAATYVKTTSGSIITVVPKSLATLGGKIISSNIVSGTTTKITTIPMTSKPNVIVVQKTTGKGTTIQGLPGKNVVTTLLNAGGEKTIQTVPTGAKPAILTATRPITKMIVTQPKGIGSTVQPAAKIIPTKIVYGQQGKTQVLIKPKPVTFQATVVSEQTRQLVTETLQQASRVAEAGNSSIQEGKEEPQNYTDSSSSSTESSQSSQDSQPVVHVIASRRQDWSEHEIAMETSPTIIYQDVSSESQSATSTIKALLELQQTTVKEKLESKPRQPTIDLSQMAVPIQMTQEKRHSPESPSIAVVESELVAEYITTERTDEGTEVAFPLLVSHRSQPQQPSQPQRTLLQHVAQSQTATQTSVVVKSIPASSPGAITHIMQQALSSHTAFTKHSEELGTEEGEVEEMDTLDPQTGLFYRSALTQSQSAKQQKLSQPPLEQTQLQVKTLQCFQTKQKQTIHLQADQLQHKLPQMPQLSIRHQKLTPLQQEQAQPKPDVQHTQHPMVAKDRQLPTLMAQPPQTVVQVLAVKTTQQLPKLQQAPNQPKIYVQPQTPQSQMSLPASSEKQTASQVEQPIITQGSSVTKITFEGRQPPTVTKITGGSSVPKLTSPVTSISPIQASEKTAVSDILKMSLMEAQIDTNVEHMIVDPPKKALATSMLTGEAGSLPSTHMVVAGMANSTPQQQKCRESCSSPSTVGSSLTTRKIDPPAVPATGQFMRIQNVGQKKAEESPAEIIIQAIPQYAIPCHSSSNVVVEPSGLLELNNFTSQQLDDEETAMEQDIDSSTEDGTEPSPSQSSAERS
On to B3, for which the binding entry in experiment [4] was “binds”; with SIN3A-HaloTag (human), “no binding”; in experiment [5] it was “binds”.

(Values after PMC8143632.)
